Experimental data: PubChem BioAssay AID720505 (Drosophila RNAi Screening Center, 2013)
Screen: 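Knock-downs that reduce calcium influx once internal stores are emptied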 (primary screen). Cell system: Drosophila S2R+ cells. Reagent: long dsRNA against Drosophila genes. Conditions: thapsigargin (2 µM) in calcium-free buffer to empty internal stores, then 2 mM calcium added back. Read-out: 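Stores emptied by 2 µM thapsigargin without calcium, then 2 mM calcium re-added; fluo-4 fluorescence followed by FLIPR in 384-well plates, per-well averaged endpoint, raw; two screen passes, some wells retested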. Reading the numbers: calcium signal and retest calcium signal: higher = more calcium entry after store depletion. Active means: 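About 1500 genes called as lowering calcium entry, by varying amounts, judged against per-plate control wells with STIM1 as positive and Rho1 as negative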. Calls: active = called as lowering calcium entry; inactive = not called.
The screen tested about 20,000 reagents; this is a random part of those that have a named target and a result. Over the whole deposit, about 2,100 (10%) got an active call. 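Raw plate signals without normalisation; calls rest on control-based scores that were not deposited; replicate 2 separates called from uncalled poorly.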 Unmarked entries are inactive. Names joined by + are all predicted targets of the reagent. No sequences are given here. The record does not give: the amount of reagent, the time to read-out.

| predicted target | dsRNA | calcium signal, replicate 1 | calcium signal, replicate 2 | retest calcium signal, replicate 1 | retest calcium signal, replicate 2 |
| --- | --- | --- | --- | --- | --- |
| lncRNA:CR40053 | DRSC20833 | 113 | 11655 | – | – |
| CG30460 | DRSC06559 | 109 | 140 | – | – |
| CG30460 | DRSC06560 | 62.1 (active) | 94.7 | – | – |
| CG30460 | DRSC23115 | 99.7 | 149 | – | – |
| eIF3l | DRSC10530 | 86.9 | 69.8 | – | – |
| alpha-Est9 | DRSC12621 | 109 | 135 | – | – |
| Or94b | DRSC16773 | 166 | 162 | – | – |
| Or45a | DRSC07487 | 105 | 132 | – | – |
| pst | DRSC11003 | 120 | 170 | – | – |
| CG10710 | DRSC09784 | 108 | 120 | – | – |
| Sdc | DRSC04654 | 101 | 107 | – | – |
| sNPF | DRSC02309 | 92.6 | 89.8 | – | – |
| sev | DRSC20372 | 152 | 86.2 | – | – |
| Pde11 | DRSC02028 | 156 | 159 | – | – |
| Pde11 | DRSC02460 | 131 | 115 | – | – |
| Nup107 | DRSC01999 | 72.9 (active) | 96 | – | – |
| TTLL6A | DRSC06618 | 179 | 186 | – | – |
| CG3734 | DRSC15509 | 254 | 150 | – | – |
| RyR | DRSC07543 | 73.8 | 83.2 | – | – |
| Vps26 | DRSC18555 | 75.9 (active) | 97.9 | – | – |
| CG40439 | DRSC22707 | 90.3 | 172 | – | – |
| ATPsynbetaL | DRSC10503 | 101 | 188 | – | – |
| CG12861 | DRSC06201 | 104 | 162 | – | – |
| CG12861 | DRSC21960 | 99.5 | 215 | – | – |
| amd | DRSC02608 | 145 | 134 | 114 | 108 |
| amd | DRSC03483 | 187 | 105 | – | – |
| Rcd6 | DRSC06054 | 175 | 87.3 | – | – |
| plh | DRSC12294 | 108 | 134 | – | – |
| CG32986 | DRSC02509 | 112 | 88.1 | – | – |
| vimar | DRSC05026 | 164 | 96.4 | – | – |
| CR32511 | DRSC20697 | 127 | 133 | – | – |
| CG10445 | DRSC14247 | 102 | 152 | – | – |
| CG32202 | DRSC09989 | 105 | 199 | – | – |
| Taf10b | DRSC00792 | 158 | 116 | – | – |
| CG10598 | DRSC19358 | 99.9 | 116 | – | – |
| Poc1 | DRSC09713 | 60.1 (active) | 98.8 | – | – |
| CG13083 | DRSC02187 | 161 | 76.9 | – | – |
| zld | DRSC19486 | 96.9 | 96.2 | – | – |
| zld | DRSC21721 | 121 | 91.6 | – | – |
| zld | DRSC23098 | 124 | 130 | – | – |
| DnaJ-1 | DRSC11145 | 84.4 | 99.1 | – | – |
| CG3335 | DRSC10358 | 82.5 | 126 | – | – |
| Noc3 | DRSC12535 | 88.6 | 150 | – | – |
| CG42374 + Mettl5 | DRSC11085 | 131 | 127 | – | – |
| bisc | DRSC04083 | 64.5 (active) | 137 | – | – |
| CG6015 | DRSC15948 | 44.2 (active) | 75.6 | – | – |
| PlexA | DRSC17220 | 133 | 123 | – | – |
| CG18745 | DRSC15382 | 109 | 161 | – | – |
| ZIPIC | DRSC16349 | 126 | 151 | – | – |
| CG2887 | DRSC18235 | 78.8 | 97.7 | – | – |
| Tbca | DRSC15395 | 97.4 | 90.1 | – | – |

Hits (from the list above):
| predicted target | dsRNA | calcium signal, replicate 1 | calcium signal, replicate 2 | retest calcium signal, replicate 1 | retest calcium signal, replicate 2 |
| --- | --- | --- | --- | --- | --- |
| CG30460 | DRSC06560 | 62.1 (active) | 94.7 | – | – |
| Nup107 | DRSC01999 | 72.9 (active) | 96 | – | – |
| Vps26 | DRSC18555 | 75.9 (active) | 97.9 | – | – |
| Poc1 | DRSC09713 | 60.1 (active) | 98.8 | – | – |
| bisc | DRSC04083 | 64.5 (active) | 137 | – | – |
| CG6015 | DRSC15948 | 44.2 (active) | 75.6 | – | – |

The list goes on:
| predicted target | dsRNA | calcium signal, replicate 1 | calcium signal, replicate 2 | retest calcium signal, replicate 1 | retest calcium signal, replicate 2 |
| --- | --- | --- | --- | --- | --- |
| CG30197 | DRSC22394 | 86.8 (active) | 87.2 | – | – |
| CG14442 | DRSC17935 | 180 | 100 | – | – |
| Dhpr | DRSC11135 | 126 | 97.7 | – | – |
| slp1 | DRSC00835 | 137 | 224 | – | – |
| CG31546 | DRSC12317 | 140 | 139 | – | – |
| CG33143 | DRSC04151 | 79.4 | 142 | – | – |
| CG33143 | DRSC04454 | 95.3 | 132 | – | – |
| mRpL42 | DRSC06235 | 111 | 87 | – | – |
| Rlb1 | DRSC16826 | 102 | 106 | – | – |
| Nlg4 | DRSC15108 | 149 | 96.9 | – | – |
| Nlg4 | DRSC15109 | 151 | 105 | – | – |
| Nlg4 | DRSC15700 | 147 | 109 | – | – |
| Nlg4 | DRSC15701 | 194 | 115 | – | – |
| Nlg4 | DRSC22243 | 33.9 (active) | 190 | – | – |
| dsh | DRSC19803 | 112 | 90.5 | – | – |
| CG3156 | DRSC18503 | 110 | 135 | – | – |
| Ptth | DRSC00356 | 94.8 | 126 | – | – |
| Nepl6 | DRSC03242 | 127 | 130 | – | – |
| CG11404 | DRSC11656 | 106 | 109 | – | – |
| CG30491 | DRSC21472 | 199 | 120 | – | – |
| CG7675 | DRSC16280 | 159 | 287 | – | – |
| Obp59a | DRSC04160 | 131 | 203 | – | – |
| mRpS17 | DRSC04463 | 89.2 | 148 | – | – |
| CG7365 | DRSC10824 | 99.3 | 117 | – | – |
| Cpr30B | DRSC02728 | 161 | 171 | – | – |
| CG10053 | DRSC12502 | 112 | 141 | – | – |
| CG3280 (retired record) | DRSC10356 | 96.5 | 106 | – | – |
| CG1792 | DRSC15290 | 79.1 | 141 | – | – |
| phtm | DRSC20237 | 39 (active) | 96.6 | – | – |
| CG32982 | DRSC01059 | 222 | 91.2 | – | – |
| CG32982 | DRSC02677 | 118 | 95.9 | – | – |
| CG32982 | DRSC03268 | 124 | 153 | 71 | 87 |
| CG32982 | DRSC03269 | 225 | 164 | – | – |
| CG32982 | DRSC21912 | 62.5 | 182 | – | – |
| CG6873 | DRSC20014 | 74.2 (active) | 50.1 | – | – |
| Mco3 | DRSC15926 | 280 | 157 | – | – |
| Nufip | DRSC10397 | 97.1 | 108 | – | – |
| Cpr49Ab | DRSC05341 | 95.9 | 126 | – | – |
| lncRNA:CR32835 | DRSC22693 | 82.8 | 125 | – | – |
| spict | DRSC02157 | 101 | 122 | – | – |
| CG7031 | DRSC16178 | 82.2 (active) | 116 | – | – |
| CG7031 | DRSC23028 | 66.7 | 113 | – | – |
| CG12104 | DRSC08254 | 179 | 134 | – | – |
| CG33655 | DRSC03858 | 79.8 | 8719 | – | – |
| cact | DRSC03501 | 94.6 | 141 | – | – |
| ppk19 | DRSC15321 | 139 | 105 | – | – |
| Su(H) | DRSC03445 | 116 | 136 | – | – |
| CG13616 | DRSC14619 | 211 | 151 | – | – |
| CG7988 | DRSC16358 | 207 | 182 | – | – |
| CG42674 | DRSC10066 | 86.6 | 150 | – | – |
| CG42674 | DRSC10067 | 91.7 | 120 | – | – |
| CG42674 | DRSC10811 | 104 | 131 | – | – |
| KrT95D | DRSC16725 | 123 | 190 | – | – |
| mRpL48 | DRSC00506 | 178 | 124 | – | – |
| CG6321 | DRSC10623 | 57.2 (active) | 94.7 | – | – |
